Data: PubChem BioAssay AID1726 (National Center for Advancing Translational Sciences (NCATS), 2009)
Listed are the inconclusive results; actives and inactives stand elsewhere. Calls come from the whole dose curve; as a rule, active = well fitted curve in the direction sought with a large enough effect; inconclusive = small, poorly fitted or top-dose-only effect, or effect the other way, or another doubt; inactive = no such curve, though single readings can be large or run the other way. Where the call is inconclusive, the potency comes from a doubtful curve fit.

Molecular target: Epidermal growth factor receptor (Homo sapiens) (UniProt P00533)
Assay: Assay for Inhibitors of the ERK Signaling Pathway using a Homogeneous Screening Assay: EGFR T790M/L858R Kinase Inhibition
Text: qHTS Assay for Inhibitors of the ERK Signaling Pathway using a Homogeneous Screening Assay
NIH Chemical Genomics Center [NCGC]
NIH Molecular Libraries Screening Centers Network [MLSCN]
Assay Submitter (PI): Dr. Wei Zheng, NCGC/NIH
The Ras/extracellular-signal-regulated kinase (ERK) mitogen activated protein (MAP) kinase signaling pathway (ERK1/2 cascade) plays is a key role in transmitting signals from the cell surface to the nucleus (Nishida and Gotoh 1993; Chang and Karin, 2001). The cascade is initiated by the small G-protein Ras, which recruits Raf […], where activation occurs. Alternatively, this pathway can be activated by elevating intracellular cAMP.
Activation of the ERK pathway is essential in increased cell division and cell survival. Sustained and constitutive activation of the ERK pathway, however, has been linked to uncontrolled cell proliferation, increased cell survival, and tumor progression. Thus, the ERK has been as an attractive target for cancer chemotherapy in the past few years (Sebolt-Leopold and Herrera, 2004). […]
The HTRF kinase assay (components supplied as kit by Cisbio) was chosen for the EGFR and EGFR mutant enzyme assays that applied the time resolved fluorescence resonance energy transfer (TR-FRET) principle. […]

## CCn1nc(-c2ccccc2)nc2c(=O)n(C)c(=O)nc1-2
  Potency: inconclusive: 39.8 µM [activator, single point]
